Two sequences from US20030100052 can be followed below.

Series [1] relates to T1, BsmBI methylase (M.BsmBI) (Bacillus stearothermophilus B61).
T1 sequence: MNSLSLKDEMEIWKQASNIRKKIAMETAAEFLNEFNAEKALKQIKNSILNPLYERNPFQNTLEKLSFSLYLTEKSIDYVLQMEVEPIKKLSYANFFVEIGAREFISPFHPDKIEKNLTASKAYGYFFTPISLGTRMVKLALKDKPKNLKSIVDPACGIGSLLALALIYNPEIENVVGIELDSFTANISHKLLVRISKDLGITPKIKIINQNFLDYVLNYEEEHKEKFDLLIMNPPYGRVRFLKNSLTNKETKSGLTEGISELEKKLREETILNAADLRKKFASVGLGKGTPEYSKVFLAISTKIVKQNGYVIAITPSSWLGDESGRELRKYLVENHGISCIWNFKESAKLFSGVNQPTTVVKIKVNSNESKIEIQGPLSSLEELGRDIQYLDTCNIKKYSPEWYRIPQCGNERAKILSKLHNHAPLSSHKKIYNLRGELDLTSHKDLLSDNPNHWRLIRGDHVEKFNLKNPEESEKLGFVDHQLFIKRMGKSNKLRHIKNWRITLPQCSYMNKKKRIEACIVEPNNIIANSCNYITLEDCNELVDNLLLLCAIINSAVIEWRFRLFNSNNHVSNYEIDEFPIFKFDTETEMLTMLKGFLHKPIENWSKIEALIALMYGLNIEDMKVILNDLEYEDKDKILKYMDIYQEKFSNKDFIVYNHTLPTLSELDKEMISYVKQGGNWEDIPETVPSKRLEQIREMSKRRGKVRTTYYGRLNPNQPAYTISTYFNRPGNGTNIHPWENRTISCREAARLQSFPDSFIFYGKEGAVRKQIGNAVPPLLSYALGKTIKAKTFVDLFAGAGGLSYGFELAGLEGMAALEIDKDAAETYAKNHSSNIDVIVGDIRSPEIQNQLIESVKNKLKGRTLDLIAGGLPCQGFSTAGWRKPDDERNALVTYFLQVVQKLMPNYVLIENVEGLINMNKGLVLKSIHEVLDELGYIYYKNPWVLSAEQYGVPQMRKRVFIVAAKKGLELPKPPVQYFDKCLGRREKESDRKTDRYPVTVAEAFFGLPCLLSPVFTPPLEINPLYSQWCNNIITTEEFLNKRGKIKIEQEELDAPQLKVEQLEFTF
In words: activity in cells. The conditions noted are these: plasmids carrying bsmBIM become fully resistant to BsmBI cleavage; BsmBI sites in vector confirmed intact; protein in cells; only the site is given.

In series [2] the test system is T2, BsmBI restriction endonuclease (R.BsmBI) (Bacillus stearothermophilus B61).
T2 sequence: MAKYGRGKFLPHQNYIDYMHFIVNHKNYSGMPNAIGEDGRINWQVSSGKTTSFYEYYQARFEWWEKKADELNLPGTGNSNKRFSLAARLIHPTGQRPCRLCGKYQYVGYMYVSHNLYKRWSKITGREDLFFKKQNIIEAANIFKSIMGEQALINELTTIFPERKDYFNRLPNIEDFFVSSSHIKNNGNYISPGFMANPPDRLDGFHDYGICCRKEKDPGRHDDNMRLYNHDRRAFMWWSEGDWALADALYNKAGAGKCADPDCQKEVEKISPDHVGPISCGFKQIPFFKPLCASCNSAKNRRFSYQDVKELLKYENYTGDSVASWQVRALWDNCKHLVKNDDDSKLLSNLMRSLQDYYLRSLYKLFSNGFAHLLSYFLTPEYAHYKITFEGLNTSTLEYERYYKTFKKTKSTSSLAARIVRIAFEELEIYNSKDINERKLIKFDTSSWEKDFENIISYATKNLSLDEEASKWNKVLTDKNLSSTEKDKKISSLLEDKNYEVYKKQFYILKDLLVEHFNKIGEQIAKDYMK
In words: enzyme reaction in vitro. The conditions noted are these: methylated by M.BsmBI (N6A and C5 methylase fusion), positions not given; native BsmBI, 30 units per 1 ug plasmid, 1 h 55 C; no cleavage of M.BsmBI-modified plasmid; binding itself not measured; purified recombinant protein; only the site is given.

For some assays here: A negative result means that nothing was seen under these conditions. Protein sequences can lack the tags named with them.

Consider CGTCTC (double strand), for which the “activity on this sequence” value in series [1] was “active”. Take “CGTCTC (double strand) [BsmBI recognition site in plasmid modified by M.BsmBI]”: the “activity on this sequence” value in series [2] is listed as “not active”.
